Source: PubChem BioAssay AID328 (DTP/NCI, 2004)
The list is a part of this screen's results and no random one: it is rich in T/C values a quarter to a half above the control, in often repeated tests (any T/C) and in doses without a T/C. Other doses and runs of a compound stand elsewhere. T/C is the treated group as % of the vehicle group. Some entries give survivors of the animals treated and no T/C: the source holds a T/C of zero for them, seemingly a mark for toxic or unscored doses. Some doses without a T/C left all or most animals alive at the check, yet need not have been tolerated: survival well below the control is almost never listed, so the zero probably covers shortened survival too. Survivors were counted at the toxicity check, usually on the fifth day, unless a day is given; later deaths do not show. Schedules are NCI's codes, read here as Q, the interval in days (D) or hours (H), X, the number of doses. Some entries hold several experiments; their values stand side by side, smallest first. For survival time, this PubChem deposit counts one and a half times the control or more as active, and values a quarter to a half above the control carry no call in these data; other NCI protocols may use other cut-offs. Some schedule codes hold Z or #, which are not explained here. Some T/C values carry the count of animals alive at the toxicity check (mostly the fifth day); where none is given, no animal had died by that day.

System: BDF1 mice, P388 leukemia ip, median survival T/C
Assay: NCI In Vivo Anticancer Drug Screen. Data for tumor model P388 Leukemia (intraperitoneal) in B6D2F1 (BDF1) mice
Conditions: T/C endpoint: median survival time, higher T/C = longer survival
Summary of the method: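 Each value expresses how treatment altered survival: treated-mouse outcome over vehicle-mouse outcome, both groups bearing the transplanted tumour.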

[1] = dose: 100.0 mg/kg/injection, schedule: Q04DX003 (ip), vehicle: saline
[2] = dose: 400.0 mg/kg/injection, schedule: Q04DX003 (ip), vehicle: saline with Tween-80
[3] = dose: 200.0 mg/kg/injection, schedule: Q01DX009 (ip), vehicle: saline with Tween-80

Compound: CN1CCN(Cc2nc3cccc4c3c([n+]2[O-])-c2ccccc2-4)CC1
- survivor count (dose: 50.0 mg/kg/injection, schedule: Q03HX008 (oral), vehicle: saline with Tween-80): 3 of 10
- survivor count (dose: 50.0 mg/kg/injection, schedule: Q03HX024 (oral), vehicle: saline with Tween-80): 6 of 10
- survivor count (dose: 50.0 mg/kg/injection, schedule: Q03HX072 (oral), vehicle: saline with Tween-80): 4 of 10
- T/C (dose: 60.0 mg/kg/injection, schedule: Q03HX008 (ip), vehicle: saline with Tween-80): 125 % of control
- T/C (dose: 60.0 mg/kg/injection, schedule: Q03HX024 (ip), vehicle: saline with Tween-80): 136 % of control
- T/C (dose: 60.0 mg/kg/injection, schedule: Q06HX032 (ip), vehicle: saline with Tween-80): 142 % of control
- T/C (dose: 80.0 mg/kg/injection, schedule: Q03HX024 (ip), vehicle: saline with Tween-80): 140 % of control [9 of 10 alive]
- T/C (dose: 80.0 mg/kg/injection, schedule: Q06HX032 (ip), vehicle: saline with Tween-80): 148 % of control
- T/C (dose: 100.0 mg/kg/injection, schedule: Q01DX009 (ip), vehicle: saline with Tween-80): 127 % of control [8 of 10 alive]
- survivor count (dose: 100.0 mg/kg/injection, schedule: Q03HX008 (ip), vehicle: saline with Tween-80): 6 of 10
- survivor count (dose: 100.0 mg/kg/injection, schedule: Q03HX024 (oral), vehicle: saline with Tween-80): 5 of 10
- survivor count (dose: 100.0 mg/kg/injection, schedule: Q03HX072 (oral), vehicle: saline with Tween-80): 6 of 10
- survivor count (dose: 100.0 mg/kg/injection, schedule: Q06HX032 (ip), vehicle: saline with Tween-80): 5 of 10
- T/C (dose: 125.0 mg/kg/injection, schedule: Q01DX009 (ip), vehicle: saline with Tween-80): 136 % of control
- survivor count (dose: 150.0 mg/kg/injection, schedule: Q01DX009 (ip), vehicle: saline with Tween-80): 6 of 10
- T/C (dose: 150.0 mg/kg/injection, schedule: Q01DX Z (ip), vehicle: saline): 139 % of control
- T/C (dose: 150.0 mg/kg/injection, schedule: Q03HX008 (oral), vehicle: saline with Tween-80): 127 % of control [9 of 10 alive]
- T/C (dose: 150.0 mg/kg/injection, schedule: Q03HX024 (oral), vehicle: saline with Tween-80): 139 % of control [8 of 10 alive]
- survivor count (dose: 150.0 mg/kg/injection, schedule: Q03HX072 (oral), vehicle: saline with Tween-80): 5 of 10
- T/C (dose: 150.0 mg/kg/injection, schedule: Q08HX027 (oral), vehicle: saline with Tween-80): 134 % of control
- survivor count (dose: 200.0 mg/kg/injection, schedule: Q03HX008 (oral), vehicle: saline with Tween-80): 1 of 10
- survivor count (dose: 200.0 mg/kg/injection, schedule: Q03HX072 (oral), vehicle: saline with Tween-80): 1 of 10

Compound: N=C(N)SCc1ccc(C(=O)Oc2ccc([N+](=O)[O-])cc2)cc1
- survivor count (dose: 100.0 mg/kg/injection, schedule: Q01DX009 (ip), vehicle: saline): 3 of 6
- T/C [1]: 127 % of control
- survivor count (dose: 200.0 mg/kg/injection, schedule: Q04DX003 (ip), vehicle: saline): 1 of 6 and 3 of 6
- survivor count (dose: 400.0 mg/kg/injection, schedule: Q04DX003 (ip), vehicle: saline): 1 of 6

Compound: Cc1ccc(Nc2ccc(Nc3ccc(C)cc3)c3c2C(=O)c2ccccc2C3=O)cc1
- survivor count [2]: 6 of 6

Compound: O=C(C(=O)C(Br)Br)C(Br)Br
- survivor count (dose: 12.5 mg/kg/injection, schedule: Q01DX009 (ip), vehicle: DMSO): 6 of 6
- survivor count (dose: 25.0 mg/kg/injection, schedule: Q01DX009 (ip), vehicle: DMSO): 0 of 6

Compound: O=C(NP(=O)(N1CC1)N1CC1)c1cc(I)ccc1I
- T/C (dose: 8.0 mg/kg/injection, schedule: Q01DX009 (ip), vehicle: saline with Tween-80): 149 % of control
- T/C (dose: 32.0 mg/kg/injection, schedule: Q01DX001 (oral), vehicle: saline): 127 % of control
- T/C (dose: 128.0 mg/kg/injection, schedule: Q01DX001 (oral), vehicle: saline): 142 % of control [9 of 10 alive]
- survivor count (dose: 128.0 mg/kg/injection, schedule: Q01DX009 (ip), vehicle: saline with Tween-80): 9 of 10
- survivor count (dose: 128.0 mg/kg/injection, schedule: Q01DX009 (ip), vehicle: saline): 6 of 6
- survivor count (dose: 256.0 mg/kg/injection, schedule: Q01DX009 (ip), vehicle: saline with Tween-80): 7 of 10
- survivor count (dose: 256.0 mg/kg/injection, schedule: Q01DX009 (ip), vehicle: saline): 10 of 10 and 6 of 6
- survivor count (dose: 512.0 mg/kg/injection, schedule: Q01DX001 (oral), vehicle: saline): 8 of 10
- survivor count (dose: 512.0 mg/kg/injection, schedule: Q01DX009 (ip), vehicle: saline with Tween-80): 6 of 10
- survivor count (dose: 512.0 mg/kg/injection, schedule: Q01DX009 (ip), vehicle: saline): 10 of 10 and 6 of 6

Compound: CN(C)Nc1ncnc2nc[nH]c12
- survivor count (dose: 200.0 mg/kg/injection, schedule: Q01DX009 (ip), vehicle: saline): 0 of 6
- survivor count [2]: 3 of 6

Compound: Cc1ccc(C)c(CCCC(=O)O)c1
- survivor count (dose: 400.0 mg/kg/injection, schedule: Q01DX009 (ip), vehicle: saline with Tween-80): 1 of 6

Compound: COc1cc(C(=O)N2CC2)cc(OC)c1OC
- survivor count (dose: 100.0 mg/kg/injection, schedule: Q01DX009 (ip), vehicle: water): 1 of 6

Compound: Cc1ccccc1C[P+](c1ccccc1)(c1ccccc1)c1ccccc1
- survivor count (dose: 2.3 mg/kg/injection, schedule: Q04DX003 (ip), vehicle: Klucel (hydroxypropylcellulose) (HPC)): 6 of 6
- survivor count (dose: 5.2 mg/kg/injection, schedule: Q04DX003 (ip), vehicle: Klucel (hydroxypropylcellulose) (HPC)): 0 of 6
- survivor count (dose: 6.25 mg/kg/injection, schedule: Q01DX009 (ip), vehicle: saline): 5 of 6
- survivor count (dose: 12.5 mg/kg/injection, schedule: Q01DX009 (ip), vehicle: saline): 3 of 6
- survivor count (dose: 20.0 mg/kg/injection, schedule: Q04DX003 (ip), vehicle: saline with Tween-80): 5 of 6

Compound: O=c1cc(CO)[nH]cc1O
- T/C (dose: 266.0 mg/kg/injection, schedule: Q01DX009 (ip), vehicle: Klucel (hydroxypropylcellulose) (HPC)): 139 % of control
- T/C (dose: 400.0 mg/kg/injection, schedule: Q01DX009 (ip), vehicle: Klucel (hydroxypropylcellulose) (HPC)): 141 % of control
- survivor count (dose: 600.0 mg/kg/injection, schedule: Q01DX009 (ip), vehicle: Klucel (hydroxypropylcellulose) (HPC)): 5 of 5

Compound: C[C@H](N)C(=O)N[C@@H]1[C@H]2C(=C(O)C[C@@H](O)[C@@H]2O)C(=O)O[C@@H]1C
- T/C (dose: 200.0 mg/kg/injection, schedule: Q01DX010 (ip), vehicle: saline): 137 % of control
- T/C (dose: 1064.0 mg/kg/injection, schedule: Q04DX003 (ip), vehicle: saline): 146 % of control [7 of 8 alive]

Compound: CC(C)(C)NCc1cc(C(C)(C)C)cc(-c2ccc(Cl)cc2)c1O
- survivor count [3]: 2 of 6

Compound: NC(N)=NC(N)=Nc1ccc2ccc3cccc4ccc1c2c34
- survivor count (dose: 100.0 mg/kg/injection, schedule: Q04DX003 (ip), vehicle: saline + alcohol): 3 of 6

Compound: O=[N+]([O-])c1cc(-c2nc3ccccc3[nH]2)cc([N+](=O)[O-])c1
- T/C [3]: 128 % of control

Compound: COc1cc(OC)c(C(=O)CCc2ccccc2)c(O)c1Cc1ccccc1O
- T/C (dose: 1.0 mg/kg/injection, schedule: Q01DX009 (ip), vehicle: saline): 132 % of control
- survivor count (dose: 9.0 mg/kg/injection, schedule: Q01DX009 (ip), vehicle: saline with Tween-80): 4 of 4

Compound: O=C1C(Br)=CC(=C2C=C(Br)C(=O)C(Br)=C2)C=C1Br
- survivor count (dose: 200.0 mg/kg/injection, schedule: Q04DX003 (ip), vehicle: Klucel (hydroxypropylcellulose) (HPC)): 3 of 6

Compound: COc1ccc(C(=O)CC(=O)CC(=O)c2ccccc2)cc1
- survivor count (dose: 100.0 mg/kg/injection, schedule: Q01DX009 (ip), vehicle: Klucel (hydroxypropylcellulose) (HPC)): 6 of 6

Compound: COC1CCC(C=O)C(C#N)(C#N)C1(C#N)C#N (stereo not drawn)
- survivor count (dose: 200.0 mg/kg/injection, schedule: Q01DX001 (ip), vehicle: saline with Tween-80): 1 of 6

Compound: CCCCOC(=O)c1ccc(OCCOc2ccc(C(C)(C)CC(C)(C)C)cc2)c(NC(=O)CC(=O)c2cccc(N)c2)c1
- survivor count (dose: 25.0 mg/kg/injection, schedule: Q04DX003 (ip), vehicle: saline sonified): 6 of 6

Compound: CC(N)COCc1ccccc1 (stereo not drawn)
- survivor count [1]: 2 of 6
